Values from PubChem BioAssay AID1259263 (Sanger Institute, 2017)
In all, the deposit lists 160 reagents; below is an unselected part. 101 of them (63%) count as active. 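Drug doses chosen to kill few cells alone; each row is one siRNA, and a gene counts as confirmed only if two or more siRNAs show synergy.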 Reagents against one gene are numbered here. Not all columns of the deposit are shown. Not given: the amount of reagent, the time to read-out.

Screen: 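Recheck kinase screen hits for synergy with three targeted cancer drugs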 (follow-up of hits)
Cell system: SW1463 human colorectal cancer cell line
Knock-down reagent: single siRNA against human genes
Challenge: anchor drugs BYL719 at 1 µM, cetuximab at 5 µg/ml or trametinib at 10 nM, or DMSO vehicle, added one day after siRNA transfection
Measured: 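Viability relative to a non-targeting siRNA control, averaged over replicates, plus a synergy score contrasting measured with expected viability loss for knock-down and drug combined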
Direction: synergy score with trametinib and synergy score with BYL719 and synergy score with cetuximab: higher = stronger synthetic lethal effect with the drug
Active means: 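a synergy score over 0.10 with any anchor drug (BYL719, cetuximab or trametinib) marks the siRNA active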
Calls: active = synergy with at least one drug; inactive = no synergy with any drug

| gene | reagent | synergy score with trametinib | synergy score with BYL719 | synergy score with cetuximab | call |
| --- | --- | --- | --- | --- | --- |
| PLK1 | 1 | 0.163 | 0.233 | -0.00142 | active |
| PLK1 | 2 | -0.0592 | -0.0787 | -0.0962 | inactive |
| PLK1 | 3 | 0.0923 | 0.0719 | -0.0333 | inactive |
| PLK1 | 4 | -0.0725 | -0.118 | 0.0552 | inactive |
| AK2 | 1 | 0.148 | -0.152 | 0.148 | active |
| AK2 | 2 | 0.298 | -0.061 | -0.0202 | active |
| AK2 | 3 | 0.0835 | -0.0704 | -0.0539 | inactive |
| AK2 | 4 | -0.0567 | -0.381 | -0.146 | inactive |
| PINK1 | 1 | 0.0649 | -0.0704 | 0.0278 | inactive |
| PINK1 | 2 | 0.202 | 0.0419 | 0.177 | active |
| PINK1 | 3 | 0.0617 | -0.0805 | -0.116 | inactive |
| PINK1 | 4 | 0.19 | -0.00518 | 0.168 | active |
| PAK1 | 1 | 0.248 | -0.0498 | 0.00981 | active |
| PAK1 | 2 | 0.185 | -0.0336 | 0.0947 | active |
| PAK1 | 3 | 0.216 | -0.0938 | 0.119 | active |
| PAK1 | 4 | 0.228 | -0.0704 | -0.00192 | active |
| CDKN2D | 1 | 0.26 | -0.21 | -0.212 | active |
| CDKN2D | 2 | 0.393 | 0.541 | 0.356 | active |
| CDKN2D | 3 | 0.366 | -0.0418 | 0.0352 | active |
| CDKN2D | 4 | 0.133 | 0.201 | 0.297 | active |
| IRAK3 | 1 | 0.257 | -0.129 | 0.0855 | active |
| IRAK3 | 2 | 0.233 | -0.0857 | 0.126 | active |
| IRAK3 | 3 | -0.0592 | -0.241 | 0.0852 | inactive |
| IRAK3 | 4 | 0.113 | 0.0696 | -0.0613 | active |
| IRAK1 | 1 | 0.428 | 0.0946 | 0.0959 | active |
| IRAK1 | 2 | 0.0761 | 0.367 | 0.117 | – |
| IRAK1 | 3 | 0.0103 | -0.0574 | -0.171 | inactive |
| IRAK1 | 4 | -0.257 | 0.0288 | -0.175 | inactive |
| KCNH8 | 1 | 0.15 | 0.0267 | 0.331 | active |
| KCNH8 | 2 | 0.193 | 0.219 | 0.134 | active |
| KCNH8 | 3 | -0.0946 | 0.0622 | -0.0793 | inactive |
| KCNH8 | 4 | 0.216 | -0.128 | -0.068 | active |
| NLK | 1 | -0.0303 | 0.213 | 0.0268 | – |
| NLK | 2 | -0.168 | -0.112 | -0.12 | inactive |
| NLK | 3 | -0.0272 | -0.176 | 0.398 | – |
| NLK | 4 | -0.118 | -0.101 | -0.00201 | inactive |
